# Source: the supplement of paper PMC7411640
# Counter-ions that a name gives are not always drawn. Some of the results follow. Single values are uncertain here, since repeats match poorly.
# Tested on: MDA-MB-468
# Test: phospho-S6 immunofluorescence (DAPI-normalised), per-plate z-score; higher = higher phospho-S6 signal (less pathway suppression)
# Conditions: 24 h
# Procedure: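 GPCR-targeted compound library (MedChemExpress HY-L006) tested on MDA-MB-468 PTEN-null TNBC cells in 384-well plates at 0.1, 1 or 10 uM, combined with vehicle, GDC0941 450 nM or lapatinib 1 uM, for 24 h. Phospho-S6 (S240/244) immunofluorescence normalised to DAPI and expressed as a per-plate z-score; values are the mean of biological triplicates.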
# [1] = compound 0.1 µM, co-treatment: GDC0941 450 nM
# [2] = compound 0.1 µM, co-treatment: lapatinib 1 uM
# [3] = compound 0.1 µM, co-treatment: vehicle
# [4] = compound 1 µM, co-treatment: GDC0941 450 nM
# [5] = compound 1 µM, co-treatment: lapatinib 1 uM
# [6] = compound 1 µM, co-treatment: vehicle
# [7] = compound 10 µM, co-treatment: GDC0941 450 nM
# [8] = compound 10 µM, co-treatment: lapatinib 1 uM
# [9] = compound 10 µM, co-treatment: vehicle
Structure (SMILES),phospho-S6 immunofluorescence (z-score) [1],phospho-S6 immunofluorescence (z-score) [2],phospho-S6 immunofluorescence (z-score) [3],phospho-S6 immunofluorescence (z-score) [4],phospho-S6 immunofluorescence (z-score) [5],phospho-S6 immunofluorescence (z-score) [6],phospho-S6 immunofluorescence (z-score) [7],phospho-S6 immunofluorescence (z-score) [8],phospho-S6 immunofluorescence (z-score) [9]
CN1C(=O)COc2c(C(=O)NC3CN4CCC3CC4)cc(Cl)cc21 (stereo unspecified) [Azasetron (hydrochloride)],1.62,0.19,1.24,3.1,-0.19,0.93,–,–,–
CNCC(O)c1ccc(O)cc1 (stereo unspecified) [Synephrine (hydrochloride)],-0.44,-0.85,0.89,0.84,-0.11,-0.55,1.02,0.35,0.24
O=Cc1cn(Cc2ccc(Cl)cc2)c2ccccc12 [Oncrasin-1],-2.31,-2.02,-5.54,-2.65,-11.2,-12.5,–,–,–
CCN(CCCCO)C(C)Cc1ccc(O)cc1 (stereo unspecified) [O-desmethyl Mebeverine alcohol (hydrochloride)],0.27,-0.08,-0.25,-0.28,-0.18,-0.34,-0.73,-0.03,-0.64
C[N+]1(C)CCCC(OC(=O)C(O)(c2ccccc2)c2ccccc2)C1 (stereo unspecified) [Mepenzolate (Bromide)],1.26,1.15,1.33,1.01,-0.61,-1,-0.25,-0.12,-0.02
Cc1ccc2c(c1)C1(CCN(CCc3nc(-c4ccccc4)oc3C)CC1)OC(=O)N2,0.88,1.37,0.79,0.69,0.28,0.46,–,–,–
Cc1ncc(CN2CC=C(c3ccccc3)CC2)c(N)n1 [Ro 10-5824 (dihydrochloride)],-0.27,0.97,0.02,0.33,-0.53,0.46,–,–,–
O=C1CCC[C@@H]2[C@H]3CCCN4CCC[C@@H](CN12)[C@@H]34 [Matrine],0.53,-0.03,-0.04,0.07,0.19,0.01,-0.52,-0.53,-0.24
NCC(O)c1ccc(O)cc1 (stereo unspecified) [Octopamine (hydrochloride)],0.13,0.11,1.43,-0.95,0.18,0.96,0.26,0.86,1.09
CC[N+](C)(CC)CCOC(=O)C(O)(c1ccccc1)c1ccccc1 [Methylbenactyzium Bromide],0.02,-1.14,-1.21,-0.52,-0.52,-0.14,-0.26,-0.59,-0.57
Cc1ccc2c(c1)[C@]13CCCC[C@@H]1[C@H](C2)N(C)CC3 [Dimemorfan (phosphate)],-0.77,-1.05,-0.38,-0.83,-0.03,-0.39,0.3,0.09,0.76
Cc1cccc([C@H](C)c2c[nH]cn2)c1C [Dexmedetomidine (hydrochloride)],0.67,0.96,1.08,0.15,0.07,1.37,–,–,–
COc1cc2c3c(c1OC)-c1ccccc1C[C@H]3N(C)CC2 [Nuciferine],-0.64,-0.78,-0.26,-0.52,-0.54,-0.76,0.21,-0.74,0
CN1CCC2=C(C1)c1ccccc1Cc1ccccc12 [Setiptiline],0.79,-0.04,-0.22,0.13,-0.52,0.16,-0.28,-1.52,-0.24
CC(C)[C@@H](CN1CC[C@@](C)(c2cccc(O)c2)[C@@H](C)C1)NC(=O)[C@H]1Cc2ccc(O)cc2CN1 [JDTic (dihydrochloride)],1.99,-0.59,0.54,1.39,-1.35,0.47,0.26,-2.5,0.81
COc1ccc(C(=O)c2c(C)n(CCN3CCOCC3)c3cc(I)ccc23)cc1,1.41,1.44,1.62,2.07,0.97,1.23,-3.18,-1.01,-3.47
CN1[C@@H]2C[C@@H](OC(=O)[C@H](CO)c3ccccc3)C[C@H]1[C@@H]1O[C@@H]12 [Scopolamine (hydrobromide)],-1.08,0.44,-0.41,-0.69,-0.65,-0.22,–,–,–
CN1[C@@H]2CC(O)C[C@H]1[C@@H]1O[C@@H]12 (stereo partly specified) [Scopine (hydrochloride)],0.8,-0.38,-1.21,0.29,0.76,-0.32,–,–,–
"Cc1c(C(=O)c2cccc3ccccc23)c2cccc3c2n1[C@H](CN1CCOCC1)CO3 [WIN 55,212-2 (Mesylate)]",-0.41,-0.61,-1.04,-0.87,-0.92,-1.42,-2.24,-0.84,-3.25
N#Cc1c(Oc2cccc(OS(=O)(=O)CCCC(F)(F)F)c2)cccc1C(F)(F)F,-0.97,-0.45,-1.2,-1.22,-0.19,-0.27,-3.05,-2.85,-5.42
Oc1ccc2c3c1O[C@H]1c4[nH]c5ccccc5c4C[C@@]4(O)[C@@H](C2)N(CC2CC2)CC[C@]314 [Naltrindole (hydrochloride)],0.1,-0.21,-1.78,0.4,-0.82,-1.22,–,–,–
CCC1(c2cccc(O)c2)CCCCN(C)C1 (stereo unspecified) [Meptazinol (hydrochloride)],-0.49,-0.54,-0.64,0.55,-0.03,0.4,–,–,–
Cc1cccc(C(C)c2c[nH]cn2)c1C (stereo unspecified) [Medetomidine (hydrochloride)],-0.2,0.17,1.23,-0.54,-0.64,0.35,–,–,–
CCCC(C)(C)c1ccc2c(c1)OC(C)(C)[C@@H]1CC=C(C)C[C@@H]21,-0.31,-0.71,0.03,-0.01,1.56,0.26,–,–,–
Cc1cccc(C)c1NC1=NCCCS1 [Xylazine (hydrochloride)],-0.07,0.7,0.46,0.58,0.29,1.86,0.73,0.79,0.89
CN(C)CCN(C)CCc1ccc(Cl)c(Cl)c1 [BD-1047 (dihydrobromide)],0.08,0.57,-1.08,-1.06,0.68,-0.26,0.39,-1.41,-0.85

# A few values from the results shown.
# phospho-S6 immunofluorescence (z-score) [1], CN1[C@@H]2C[C@@H](OC(=O)[C@H](CO)c3ccccc3)C[C@H]1[C@@H]1O[C@@H]12 [Scopolamine (hydrobromide)] is entered as -1.08
# phospho-S6 immunofluorescence (z-score) [7], CNCC(O)c1ccc(O)cc1 (stereo unspecified) [Synephrine (hydrochloride)] is entered as 1.02
